Read-outs that look alike come from different tables or passages of the source. No constants are given. Whether binding was seen depends on the method and setting. In cells and extracts the contact can be indirect. Some entries that bind do so weakly or less than the wild type.
T1: RalGPS2 (Ral GEF with PH domain and SH3-binding motif 2) (human (endogenous in 5637 and HEK293)) (UniProt Q86X27)
T1 sequence: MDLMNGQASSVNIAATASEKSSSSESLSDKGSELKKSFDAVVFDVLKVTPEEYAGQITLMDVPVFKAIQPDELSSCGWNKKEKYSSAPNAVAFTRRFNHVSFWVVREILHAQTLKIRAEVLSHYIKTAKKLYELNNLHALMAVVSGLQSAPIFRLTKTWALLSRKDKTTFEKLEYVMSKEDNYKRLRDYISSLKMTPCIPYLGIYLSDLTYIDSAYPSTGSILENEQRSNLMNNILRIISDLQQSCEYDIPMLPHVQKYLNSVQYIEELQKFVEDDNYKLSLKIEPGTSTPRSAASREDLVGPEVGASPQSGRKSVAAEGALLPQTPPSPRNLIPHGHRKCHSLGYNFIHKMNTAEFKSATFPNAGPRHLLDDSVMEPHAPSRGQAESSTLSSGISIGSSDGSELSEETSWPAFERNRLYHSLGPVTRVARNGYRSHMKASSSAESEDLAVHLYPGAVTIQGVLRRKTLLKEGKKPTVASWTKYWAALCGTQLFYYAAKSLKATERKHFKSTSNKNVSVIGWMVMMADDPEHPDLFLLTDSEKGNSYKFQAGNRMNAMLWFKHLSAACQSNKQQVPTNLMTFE

Protein sequences, listed by entry. Tags and fused reporters are not part of them.
UniProt O00453: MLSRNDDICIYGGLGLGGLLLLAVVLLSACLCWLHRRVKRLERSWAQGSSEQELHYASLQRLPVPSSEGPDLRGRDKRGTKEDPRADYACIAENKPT
UniProt Q96KP1: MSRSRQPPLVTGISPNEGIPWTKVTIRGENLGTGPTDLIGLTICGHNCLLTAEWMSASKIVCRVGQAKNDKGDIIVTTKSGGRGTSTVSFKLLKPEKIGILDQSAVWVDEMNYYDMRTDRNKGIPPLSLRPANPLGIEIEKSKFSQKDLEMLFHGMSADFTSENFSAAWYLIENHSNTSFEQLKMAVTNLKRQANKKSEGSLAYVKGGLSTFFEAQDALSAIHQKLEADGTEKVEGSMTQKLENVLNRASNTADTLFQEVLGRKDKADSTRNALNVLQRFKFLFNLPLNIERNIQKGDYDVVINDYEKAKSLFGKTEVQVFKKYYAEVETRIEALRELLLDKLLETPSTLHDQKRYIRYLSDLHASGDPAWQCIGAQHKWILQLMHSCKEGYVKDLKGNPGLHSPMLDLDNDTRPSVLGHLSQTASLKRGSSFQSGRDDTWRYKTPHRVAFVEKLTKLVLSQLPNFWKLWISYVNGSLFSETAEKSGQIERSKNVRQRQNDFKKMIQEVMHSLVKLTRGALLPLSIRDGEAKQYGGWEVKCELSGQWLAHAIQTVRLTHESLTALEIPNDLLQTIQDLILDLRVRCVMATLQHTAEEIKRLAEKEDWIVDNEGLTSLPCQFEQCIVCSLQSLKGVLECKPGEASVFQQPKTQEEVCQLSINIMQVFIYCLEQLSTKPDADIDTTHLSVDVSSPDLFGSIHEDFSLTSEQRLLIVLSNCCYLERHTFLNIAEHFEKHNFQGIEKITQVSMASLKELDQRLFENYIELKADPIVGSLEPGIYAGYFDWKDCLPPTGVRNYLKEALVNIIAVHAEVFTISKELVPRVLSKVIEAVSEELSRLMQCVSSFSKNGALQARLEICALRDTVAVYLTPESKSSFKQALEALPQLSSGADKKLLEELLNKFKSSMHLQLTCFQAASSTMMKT


Experiments:
[1] = target: T1, RalGPS2 (Ral GEF with PH domain and SH3-binding motif 2) (human (endogenous in 5637 and HEK293)); assay: co-IP; HEK293 cells, endogenous proteins; serum-starved (0.5% FBS) 18 h, then stimulated with 10% FBS for 15 min (S) or left unstimulated (NS); IP with anti-RalGPS2, anti-LST1 or anti-Sec5 antibodies, western blot
[2] = target: transmembrane MHC class III protein leukocyte-specific transcript 1 (LST1) (human (endogenous in HEK293)) (UniProt O00453); assay: as above
[3] = target: T1, RalGPS2 (Ral GEF with PH domain and SH3-binding motif 2) (human (endogenous in 5637 and HEK293)); assay: as above; remark: listed apart in the source
[4] = target: transmembrane MHC class III protein leukocyte-specific transcript 1 (LST1) (human (endogenous in HEK293)) (UniProt O00453); assay: as above; remark: listed apart in the source
[5] = target: Sec5 (human (endogenous in HEK293)) (UniProt Q96KP1); assay: as above
[6] = target: T1, RalGPS2 (Ral GEF with PH domain and SH3-binding motif 2) (human (endogenous in 5637 and HEK293)); assay: co-IP; 5637 cells, endogenous proteins; serum-starved (0.5% FBS) 18 h, then stimulated with 10% FBS for 15 min (S) or left unstimulated (NS); IP with anti-RalGPS2 antibodies, western blot

Molecule | binding [1] | binding [3] | also measured
Sec5 (from UniProt Q96KP1 1-924) | binds |  | binding [2]: binds
transmembrane MHC class III protein leukocyte-specific transcript 1 (LST1) (from UniProt O00453 1-97) | binds |  | 

Further lines, with some results ahead:

binding [1] | binding [3] | Molecule | also measured
 | binds | RalA GTPase (protein, UniProt P11233 1-206) MAANKPKGQNSLALHKVIMVGSGGVGKSALTLQFMYDEFVEDYEPTKADSYRKKVVLDGEEVQIDILDTAGQEDYAAIRDNYFRSGEGFLCVFSITEMESFAATADFREQILRVKEDENVPFLLVGNKSDLEDKRQVSVEEAKNRAEQWNVNYVETSAKTRANVDKVFFDLMREIRARKMEDSKEKNGKKKRKSLAKRIRERCCIL | binding [4]: binds; binding [5]: binds
 | binds | TNFα-induced protein 2 (TNFαIP2, also known as M-Sec) (protein, UniProt Q03169 1-654) MSEASSEDLVPPLEAGAAPYREEEEAAKKKKEKKKKSKGLANVFCVFTKGKKKKGQPSSAEPEDAAGSRQGLDGPPPTVEELKAALERGQLEAARPLLALERELAAAAAAGGVSEEELVRRQSKVEALYELLRDQVLGVLRRPLEAPPERLRQALAVVAEQEREDRQAAAAGPGTSGLAATRPRRWLQLWRRGVAEAAEERMGQRPAAGAEVPESVFLHLGRTMKEDLEAVVERLKPLFPAEFGVVAAYAESYHQHFAAHLAAVAQFELCERDTYMLLLWVQNLYPNDIINSPKLVGELQGMGLGSLLPPRQIRLLEATFLSSEAANVRELMDRALELEARRWAEDVPPQRLDGHCHSELAIDIIQITSQAQAKAESITLDLGSQIKRVLLVELPAFLRSYQRAFNEFLERGKQLTNYRANVIANINNCLSFRMSMEQNWQVPQDTLSLLLGPLGELKSHGFDTLLQNLHEDLKPLFKRFTHTRWAAPVETLENIIATVDTRLPEFSELQGCFREELMEALHLHLVKEYIIQLSKGRLVLKTAEQQQQLAGYILANADTIQHFCTQHGSPATWLQPALPTLAEIIRLQDPSAIKIEVATYATCYPDFSKGHLSAILAIKGNLSNSEVKRIRSILDVSMGAQEPSRPLFSLIKVG | binding [6]: binds

— PMC8699646
